The chains behind the UniProt entries cited, without tags or fusion partners.
UniProt Q9EQU5: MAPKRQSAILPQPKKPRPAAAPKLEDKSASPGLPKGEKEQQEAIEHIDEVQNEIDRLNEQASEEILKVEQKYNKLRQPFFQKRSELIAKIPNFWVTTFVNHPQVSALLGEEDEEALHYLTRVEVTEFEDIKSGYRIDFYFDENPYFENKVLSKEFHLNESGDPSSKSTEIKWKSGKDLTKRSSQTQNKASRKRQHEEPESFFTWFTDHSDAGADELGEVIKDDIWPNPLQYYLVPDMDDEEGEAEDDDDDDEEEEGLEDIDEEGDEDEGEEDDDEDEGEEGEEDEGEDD
UniProt P63330: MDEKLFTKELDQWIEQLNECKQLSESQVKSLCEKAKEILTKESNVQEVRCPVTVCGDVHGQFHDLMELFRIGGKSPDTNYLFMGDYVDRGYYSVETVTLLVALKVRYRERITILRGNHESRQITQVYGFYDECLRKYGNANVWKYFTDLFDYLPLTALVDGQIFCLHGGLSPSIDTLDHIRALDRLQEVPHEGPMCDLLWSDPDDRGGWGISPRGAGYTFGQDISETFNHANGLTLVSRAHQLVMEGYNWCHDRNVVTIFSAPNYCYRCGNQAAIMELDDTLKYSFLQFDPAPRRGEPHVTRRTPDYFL
UniProt Q61937: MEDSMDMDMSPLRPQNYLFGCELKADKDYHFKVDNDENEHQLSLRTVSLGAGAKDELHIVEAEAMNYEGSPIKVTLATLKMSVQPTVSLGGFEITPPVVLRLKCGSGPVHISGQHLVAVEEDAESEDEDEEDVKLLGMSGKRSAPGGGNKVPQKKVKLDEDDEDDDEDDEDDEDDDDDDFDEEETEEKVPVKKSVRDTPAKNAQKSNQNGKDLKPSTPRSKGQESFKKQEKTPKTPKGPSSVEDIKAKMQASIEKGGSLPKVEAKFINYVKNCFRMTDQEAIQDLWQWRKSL

Results are given in words; binding and its absence hold for the method and conditions named. Binding seen in cells or lysates may run through a third protein. A yes stands for co-enrichment or nearness to the bait. Other partners may have been found.
Each substance was assayed against T1, Shwachman–Bodian–Diamond syndrome (SBDS) protein (mouse (endogenous in FDC.P1)) (UniProt P70122) (assay: affinity purification with mass spectrometry; SBDS immunoprecipitates from c-KIT/D816V cells subjected to LC-MS/MS).
T1 sequence: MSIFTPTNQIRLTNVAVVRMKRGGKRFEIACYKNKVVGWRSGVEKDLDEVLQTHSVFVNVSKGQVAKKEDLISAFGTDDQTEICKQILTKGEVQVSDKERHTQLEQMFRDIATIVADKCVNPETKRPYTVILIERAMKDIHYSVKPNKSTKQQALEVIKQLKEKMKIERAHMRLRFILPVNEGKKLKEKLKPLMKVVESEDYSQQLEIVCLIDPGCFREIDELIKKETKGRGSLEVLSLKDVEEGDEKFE
For SET (from UniProt Q9EQU5 1-289), the binding was “binds”.
For “catalytic subunit of PP2A, PP2Ac (PPP2CA) (from UniProt P63330 1-309) (enzyme)”, the binding was “binds”.
In the case of “nucleophosmin (NPM1) (from UniProt Q61937 1-292)”, the binding is reported as “binds”.
“PP2A structural subunit (PP2A-A) (mouse (endogenous in FDC.P1))” was tested, and the binding was “binds”.

Source: publication PMC7685970
